Laboratory results taken from the supplement of paper PMC10849652.
Some of the results follow.

By UniProt entry, the sequences of proteins in these tests, tags left out. Where a name states a change or a piece, a line headed by the entry shows the natural chain unless it says otherwise.
UniProt Q96BH1: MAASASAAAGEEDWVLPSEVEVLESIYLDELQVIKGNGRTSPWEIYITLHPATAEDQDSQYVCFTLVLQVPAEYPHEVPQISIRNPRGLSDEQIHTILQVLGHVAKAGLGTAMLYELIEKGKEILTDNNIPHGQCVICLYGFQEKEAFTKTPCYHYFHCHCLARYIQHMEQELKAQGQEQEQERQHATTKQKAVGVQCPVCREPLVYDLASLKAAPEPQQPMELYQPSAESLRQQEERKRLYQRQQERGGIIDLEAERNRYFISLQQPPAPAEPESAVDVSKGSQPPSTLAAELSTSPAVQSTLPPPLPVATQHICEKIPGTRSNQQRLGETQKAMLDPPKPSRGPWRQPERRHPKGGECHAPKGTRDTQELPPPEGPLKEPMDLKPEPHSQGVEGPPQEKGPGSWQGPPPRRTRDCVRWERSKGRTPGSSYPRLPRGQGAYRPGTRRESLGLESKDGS
UniProt Q86WX3: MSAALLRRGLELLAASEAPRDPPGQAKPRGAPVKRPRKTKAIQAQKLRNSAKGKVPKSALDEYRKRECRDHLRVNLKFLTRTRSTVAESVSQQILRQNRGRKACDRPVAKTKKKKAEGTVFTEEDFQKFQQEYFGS
UniProt Q9P2E9: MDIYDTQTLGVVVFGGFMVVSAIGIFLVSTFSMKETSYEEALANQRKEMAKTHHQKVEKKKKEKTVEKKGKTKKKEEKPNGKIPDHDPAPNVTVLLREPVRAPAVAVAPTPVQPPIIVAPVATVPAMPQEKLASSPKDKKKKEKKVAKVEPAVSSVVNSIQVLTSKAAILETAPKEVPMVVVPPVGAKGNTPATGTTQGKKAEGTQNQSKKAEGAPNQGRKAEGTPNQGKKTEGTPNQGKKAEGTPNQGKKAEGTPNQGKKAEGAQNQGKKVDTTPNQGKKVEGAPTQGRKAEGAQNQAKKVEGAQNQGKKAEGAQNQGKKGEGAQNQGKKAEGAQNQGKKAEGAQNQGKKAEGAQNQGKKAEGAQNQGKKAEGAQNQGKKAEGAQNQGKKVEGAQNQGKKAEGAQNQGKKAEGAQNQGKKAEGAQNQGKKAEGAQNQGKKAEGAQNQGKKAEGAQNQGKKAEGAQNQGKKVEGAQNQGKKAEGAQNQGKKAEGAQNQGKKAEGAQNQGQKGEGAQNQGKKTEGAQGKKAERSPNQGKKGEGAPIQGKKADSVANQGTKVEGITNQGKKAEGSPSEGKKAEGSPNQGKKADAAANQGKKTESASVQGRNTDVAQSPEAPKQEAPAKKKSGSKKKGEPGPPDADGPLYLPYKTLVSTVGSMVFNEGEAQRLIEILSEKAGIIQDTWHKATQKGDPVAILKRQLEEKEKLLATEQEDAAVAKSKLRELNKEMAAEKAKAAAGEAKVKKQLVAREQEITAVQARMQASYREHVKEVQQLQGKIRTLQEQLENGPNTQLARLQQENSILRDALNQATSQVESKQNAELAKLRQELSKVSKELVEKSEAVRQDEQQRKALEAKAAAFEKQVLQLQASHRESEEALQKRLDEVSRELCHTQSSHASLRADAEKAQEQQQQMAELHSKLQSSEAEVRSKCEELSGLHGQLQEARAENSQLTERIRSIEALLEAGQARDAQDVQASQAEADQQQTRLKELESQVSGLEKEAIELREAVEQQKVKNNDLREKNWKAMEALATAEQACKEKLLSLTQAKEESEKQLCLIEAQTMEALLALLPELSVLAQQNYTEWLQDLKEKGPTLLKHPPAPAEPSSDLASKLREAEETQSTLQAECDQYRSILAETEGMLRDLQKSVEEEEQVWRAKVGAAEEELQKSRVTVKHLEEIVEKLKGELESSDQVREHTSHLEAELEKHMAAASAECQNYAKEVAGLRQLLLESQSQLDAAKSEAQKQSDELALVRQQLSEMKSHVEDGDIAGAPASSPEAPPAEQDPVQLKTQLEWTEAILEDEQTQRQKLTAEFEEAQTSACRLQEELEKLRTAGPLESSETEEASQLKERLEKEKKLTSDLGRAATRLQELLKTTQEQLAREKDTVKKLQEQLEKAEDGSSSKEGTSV
UniProt P10301: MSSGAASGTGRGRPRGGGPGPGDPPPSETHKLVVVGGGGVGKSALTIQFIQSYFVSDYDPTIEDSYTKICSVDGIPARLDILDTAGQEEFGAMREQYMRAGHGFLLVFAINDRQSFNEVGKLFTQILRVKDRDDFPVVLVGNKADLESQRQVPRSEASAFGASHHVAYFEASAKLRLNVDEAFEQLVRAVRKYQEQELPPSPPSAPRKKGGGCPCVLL
UniProt O60942: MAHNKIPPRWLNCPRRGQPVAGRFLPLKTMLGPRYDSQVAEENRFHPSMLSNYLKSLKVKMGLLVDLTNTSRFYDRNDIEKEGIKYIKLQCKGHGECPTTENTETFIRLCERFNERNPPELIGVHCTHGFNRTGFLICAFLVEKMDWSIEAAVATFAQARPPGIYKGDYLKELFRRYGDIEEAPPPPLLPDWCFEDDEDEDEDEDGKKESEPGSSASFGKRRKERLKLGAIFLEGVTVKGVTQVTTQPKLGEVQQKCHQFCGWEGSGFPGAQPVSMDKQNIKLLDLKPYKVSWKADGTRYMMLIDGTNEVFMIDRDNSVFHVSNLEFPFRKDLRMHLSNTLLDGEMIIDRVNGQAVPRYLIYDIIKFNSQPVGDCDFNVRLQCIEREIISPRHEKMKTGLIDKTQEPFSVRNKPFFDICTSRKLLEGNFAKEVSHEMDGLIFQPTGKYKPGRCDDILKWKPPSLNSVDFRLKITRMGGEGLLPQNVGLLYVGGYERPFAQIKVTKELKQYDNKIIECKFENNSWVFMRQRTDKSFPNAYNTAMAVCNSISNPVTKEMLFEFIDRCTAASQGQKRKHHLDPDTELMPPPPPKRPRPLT
UniProt Q9H6T3, whole entry, looked up: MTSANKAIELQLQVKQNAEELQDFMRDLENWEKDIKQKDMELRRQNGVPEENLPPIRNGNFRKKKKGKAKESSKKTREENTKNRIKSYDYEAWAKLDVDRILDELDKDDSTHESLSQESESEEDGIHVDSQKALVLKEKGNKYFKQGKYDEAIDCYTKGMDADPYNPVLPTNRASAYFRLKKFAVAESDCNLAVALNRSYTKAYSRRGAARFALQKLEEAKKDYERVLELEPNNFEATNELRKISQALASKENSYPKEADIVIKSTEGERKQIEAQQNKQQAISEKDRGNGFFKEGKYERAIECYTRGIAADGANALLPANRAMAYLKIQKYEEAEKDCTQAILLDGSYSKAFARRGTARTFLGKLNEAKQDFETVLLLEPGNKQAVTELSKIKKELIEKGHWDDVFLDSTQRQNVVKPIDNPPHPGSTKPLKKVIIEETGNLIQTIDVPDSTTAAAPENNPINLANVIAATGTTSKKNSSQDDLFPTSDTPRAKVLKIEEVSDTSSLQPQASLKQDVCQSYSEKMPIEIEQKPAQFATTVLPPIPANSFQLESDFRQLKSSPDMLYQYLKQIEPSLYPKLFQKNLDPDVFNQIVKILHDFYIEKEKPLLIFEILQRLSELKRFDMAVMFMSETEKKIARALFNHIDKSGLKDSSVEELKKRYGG
UniProt Q92901: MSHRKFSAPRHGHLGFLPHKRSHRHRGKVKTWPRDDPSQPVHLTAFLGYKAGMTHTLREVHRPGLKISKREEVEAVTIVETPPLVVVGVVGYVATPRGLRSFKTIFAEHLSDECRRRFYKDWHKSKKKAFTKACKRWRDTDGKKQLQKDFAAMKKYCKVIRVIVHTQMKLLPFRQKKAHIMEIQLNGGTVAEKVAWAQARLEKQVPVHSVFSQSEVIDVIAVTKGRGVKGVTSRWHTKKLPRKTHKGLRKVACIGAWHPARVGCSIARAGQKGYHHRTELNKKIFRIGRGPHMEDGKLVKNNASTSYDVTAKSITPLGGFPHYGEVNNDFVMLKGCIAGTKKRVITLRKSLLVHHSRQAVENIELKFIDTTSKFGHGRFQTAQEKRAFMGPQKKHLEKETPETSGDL

Compound: Cc1cc(Nc2cc(N3CCN(C)CC3)nc(Sc3ccc(NC(=O)C4CC4)cc3)n2)n[nH]1 [tozasertib]
Assay: log2 fold change, soluble protein after heating vs DMSO (PISA); higher = thermal stabilisation; K562 cells, 10 uM, 30 min; active = over 0.2 and 3.5 SD of the protein, either way, in both replicates (recomputed)
Method in brief: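 K562 cells at 2×10^6 cells/mL were given 10 μM compound for 30 min. Aliquots then went through 3 min of heating across 48°C-58°C, were pooled, and were extracted in PBS with 0.5% NP-40 at 4°C, and the supernatant after 21,000xg for 90 min was quantified by TMTpro 16plex LC-MS/MS with channel sums equalised. Thermal stability relative to control samples, from duplicates, is given as log2 fold change.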

log2 fold change, inactive:
RPL13 (UniProt P26373) 0.047
RNF25 (UniProt Q96BH1) 0.014
RPL8 (UniProt P62917) 0.059
RPS27 (UniProt P42677) 0
RPS19BP1 (UniProt Q86WX3) -0.029
RPL35 (UniProt P42766) 0.095
RPS10 (UniProt P46783) -0.011
RRBP1 (UniProt Q9P2E9) 0.059
RPL22 (UniProt P35268) 0.028
RPS6 (UniProt P62753) 0.129
RRAS (UniProt P10301) -0.006
RPL7 (UniProt P18124) 0.03
RPL13A (UniProt P40429) 0.068
RPL26 (UniProt P61254) 0.072
RPS29 (UniProt P62273) 0.032
RNGTT (UniProt O60942) 0.065
RPAP3 (UniProt Q9H6T3) 0.021
RPL3L (UniProt Q92901) 0.116

2 records picked at random from those above, as already listed:
log2 fold change, inactive:
RPS27 (UniProt P42677) 0
RPS19BP1 (UniProt Q86WX3) -0.029
